# Values from PubChem BioAssay AID1259405 (NCATS, 2018)
# Screen: 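Knock-downs that lift recombinant protein yield in hamster ovary cells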 (primary screen)
# Cell system: Chinese hamster CHO-K1 ovary cells with stable secreted eGFP expression
# Knock-down reagent: single siRNA against mouse genes, 0.8 pmol siRNA per well (2 µl of 400 nM stock)
# Timing: 3 days
# Measured: 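Percent of the per-plate non-targeting control median for intracellular GFP per well by laser scanning cytometry and for cell viability by ATP luminescence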
# Scale: GFP, % of control: higher = more GFP per well, higher productivity; viability (ATP), % of control: higher = more viable cells (more ATP)
# Rule for the call: 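a knock-down is called active if GFP reaches 120% or more of non-targeting control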
# The whole screen tested about 50,000 reagents; shown is an unselected part. About 4,000 of all reagents (8%) were called active. 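Mouse siRNA library applied to hamster cells; one well for each siRNA.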 Reagents against one gene are numbered here. No sequences are given here.
target gene,siRNA no.,"GFP, % of control","viability (ATP), % of control",Call
Sart3,1,69.4,80,inactive
Sart3,2,85.7,84.9,inactive
Sart3,3,63.2,64.5,inactive
Tcea3,1,22.1,24.6,inactive
Tcea3,2,74.1,49.9,inactive
Tcea3,3,76.8,72.1,inactive
Lrrn2,1,86.8,89.4,inactive
Lrrn2,2,51.4,55.1,inactive
Lrrn2,3,32.2,24.3,inactive
Nbl1,1,59.2,73.7,inactive
Nbl1,2,80.9,85.4,inactive
Nbl1,3,45.5,44.2,inactive
Afap1l2,1,62.8,63.7,inactive
Afap1l2,2,42.1,45.9,inactive
Afap1l2,3,89.1,76.1,inactive
Selenom,1,47.7,32.2,inactive
Selenom,2,79,68,inactive
Selenom,3,62.1,69.1,inactive
Or8g2,1,103,63.6,inactive
Or8g2,2,69.6,47.5,inactive
Or8g2,3,55,63.9,inactive
Ucn3,1,55.7,38,inactive
Ucn3,2,65.1,76.8,inactive
Ucn3,3,0,130,inactive
Atad2,1,92.9,132,inactive
Atad2,2,56.3,90.9,inactive
Atad2,3,83.7,70.4,inactive
Plekhg5,1,71.9,57.7,inactive
Plekhg5,2,89.8,81.7,inactive
Plekhg5,3,95.8,72.1,inactive
Mmp19,1,85.8,91.9,inactive
Mmp19,2,142,90.4,active
Mmp19,3,119,84.2,inactive
Wdtc1,1,190,125,active
Wdtc1,2,96.3,75.9,inactive
Wdtc1,3,81.6,92.5,inactive

An excerpt of the results above, for reference:
target gene,siRNA no.,"GFP, % of control","viability (ATP), % of control",Call
Or8g2,2,69.6,47.5,inactive
Or8g2,3,55,63.9,inactive
